From PubChem BioAssay AID504444 (National Center for Advancing Translational Sciences (NCATS), 2011)
Screen size: about 360,000 compounds; about 7,500 (2.1%) were called active. Inconclusive means that the source gave no clear call. Such entries were picked first, then a sample of the others. Calls follow the shape of the dose curve; as a rule, active = well fitted inhibition curve with a large enough effect; inconclusive = small, poorly fitted or top-dose-only effect, or effect the other way; inactive = flat fitted curve, though single readings scatter. A potency beside an inconclusive call is a rough fit, not a confirmed value.

assay: Nrf2 qHTS screen for inhibitors; conditions: A549 ARE-Fluc reporter, luciferase luminescence, 18-24 h; activity change, negative = inhibition: at 46 µM (top of the series); also: nearly all actives have a fitted effect of over 60% in size
Outline: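 Nrf2 activity is the BugLite luminescence, read 15 min after reagent at room temperature, following CellTiter-Fluor cytotoxicity readout (30 min, 37C). Compound titrations were applied for 18-24 h to 5000 A549 ARE_Fluc cells/well in 5% FBS OPTI-MEM.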
% is scaled to controls: 0 for no effect and ±100 for the full control effect; potency is read from the fitted curve at half-maximal effect.

| SMILES | Potency | activity change, negative = inhibition |
| --- | --- | --- |
| Cc1ccc(S(=O)(=O)N2CCCCC2CCNC(=O)C(=O)NCc2ccccc2)cc1 (stereo not drawn) | inconclusive: 20.6 µM [activator, single point] |  |
| O=C(NN1c2ccccc2CCc2ccccc21)c1ccccc1Br | inconclusive: 6.51 µM [falling, partial curve, poor fit] |  |
| COc1ccc(O)c(/C=N/Nc2nc(C)cc(-c3ccccc3)n2)c1 | inconclusive: 11.6 µM [falling, partial curve, poor fit] |  |
| COc1ccccc1CCNC(=O)c1cc(C2CC2)nc2c1cnn2C(C)C |  | inactive: -14.5% |
| COc1cc(C2c3cc4c(cc3OC(NNC(N)=O)C2C)OCO4)cc(OC)c1OC (stereo not drawn) | inconclusive: 7.31 µM [activator, partial curve, poor fit] |  |
| COc1ccc2c(c1)C(=O)Cc1ccccc1O2 |  | inactive: -17.7% |
| Cc1ccc(C2CC(c3cccs3)=NN2C(=O)CSc2nc(=O)n3cc(C)ccc3n2)cc1 (stereo not drawn) | inconclusive: 25.9 µM [falling, single point] |  |
| O=C(c1ccc(Cn2ccc([N+](=O)[O-])n2)cc1)N1CCN(Cc2ccccc2)CC1 | inconclusive: 25.9 µM [falling, single point] |  |
| Cc1ccc(NC(=O)CCc2nnc3ccc(NCc4ccco4)nn23)cc1 | inconclusive: 20.6 µM [activator, single point] |  |
| Cc1cccc(C)c1NC(=O)COC(=O)c1ccc([N+](=O)[O-])o1 | inconclusive: 0.82 µM [activator, full curve, poor fit] |  |
| COc1ccc(S(=O)(=O)N2CCN(CC(=O)N3CCOCC3)CC2)cc1OC | inconclusive: 25.9 µM [activator, partial curve, poor fit] |  |
| Cc1nc(C(=O)NNC(=O)c2c(-c3c(Cl)cccc3Cl)noc2C)cs1 | inconclusive: 29.1 µM [falling, single point] |  |
| O=C(CCNC(=O)c1ccccc1Cl)Nc1cccc(S(=O)(=O)N2CCCC2)c1 | inconclusive: 25.9 µM [falling, partial curve, poor fit] |  |
| Cc1cc2c(c(C)c1Cl)C(c1ccc3c(c1)OCO3)CC(O)(c1ccccc1)O2 (stereo not drawn) | inconclusive: 29.1 µM [falling, single point] |  |
| CCOc1cc(CNc2ccccc2)cc(Br)c1OCc1ccccc1F | inconclusive: 29.1 µM [falling, single point] |  |
| O=C(CSCc1ccccc1)N/N=C/c1ccc(OCC(=O)N2CCCCC2)cc1 |  | inactive: -19.8% |
| O=c1c2ccccc2nc(/C=C/c2ccc([N+](=O)[O-])o2)n1CCCO | active: 20.6 µM |  |
| O=C(O)c1ccc2c(=O)n3cc(C(=O)c4ccccc4O)cc(Cl)c3nc2c1 | inconclusive: 29.1 µM [falling, single point] |  |
| COc1ccccc1NC(=O)CSc1nc2ccccc2c(=O)n1CC1CCCO1 (stereo not drawn) |  | inactive: -20.3% |
| O=C1CC(=Nc2ccccc2)NN1c1ccccc1 | inconclusive: 29.1 µM [falling, single point] |  |
| Cc1ccn(CC(=O)NC2CC(C)(C)Cc3c2cnn3-c2ccc(F)cc2)n1 (stereo not drawn) | inconclusive: 25.9 µM [activator, single point] |  |
| Cc1ccnc(SCC(=O)Nc2sc3c(c2C#N)CCCC3)n1 | active: 9.2 µM |  |

| SMILES | Potency | activity change, negative = inhibition |
| --- | --- | --- |
| O=C(CCCn1c(=S)[nH]c2cc3c(cc2c1=O)OCO3)N1CCN(C2CCCCC2)CC1 | inconclusive: 20.6 µM [falling, partial curve, poor fit] |  |
| CCC(=O)OCC(=O)N=c1sccn1Cc1ccc(C)cc1 |  | inactive: -14.4% |
| O=S(=O)(c1ccc2ccccc2c1)n1cnc2ccccc21 | inconclusive: 20.6 µM [falling, single point] |  |
| O=C(Cc1ccc2c(c1)CCCC2)Nc1ccccc1Cl | inconclusive: 29.1 µM [activator, partial curve, poor fit] |  |
| COc1ccc(C(=O)c2ccc(Cl)c([N+](=O)[O-])c2)cc1 | inconclusive: 23.1 µM [activator, single point] |  |
| C(=N\Nc1nc(-c2cccnc2)nc2ccccc12)/c1ccccc1 |  | inactive: -1.77% |
| COc1ccc(C2c3ccsc3CCN2C(C)=O)cc1 (stereo not drawn) | inconclusive: 29.1 µM [activator, single point] |  |
| Clc1ccccc1-c1nc(-c2ccncc2)no1 | inconclusive: 16.4 µM [activator, partial curve] |  |
| Cc1cccc(NC(=O)CCC2CCN(C(=O)c3ccc(C)s3)CC2)c1 | inconclusive: 18.4 µM [falling, single point] |  |
| CCN(CC)c1ccc(NC(=O)Cn2cc3c(n2)CCC(C)C3)c(C)c1 (stereo not drawn) | active: 13 µM |  |
| CC(OC(=O)C1=COCCO1)C(=O)Nc1ccccc1C#N (stereo not drawn) |  | inactive: -6.55% |
| COc1ccc(/C=C2\C(=O)ON=C2c2ccccc2)cc1OC |  | inactive: 14.3% |
| Cc1ccc(N2CS(=O)(=O)/C(=C/N(C)C)C2=O)cc1 | inconclusive: 9.2 µM [activator, partial curve] |  |
| COc1c(C)c2c(c(O)c1C/C=C(\C)CCC(=O)O)C(=O)OC2 | inconclusive: 2.31 µM [activator, full curve] |  |
| CCN(CC)S(=O)(=O)c1nnc(NC(=O)COc2ccccc2)s1 | inconclusive: 29.1 µM [activator, single point] |  |
| Cc1ccc(CNc2nc(Cl)c(C#N)s2)cc1 | inconclusive: 29.1 µM [activator, single point] |  |
| COC(=O)c1sc(S(=O)(=O)NCC(=O)O)c(C(=O)OC)c1C |  | inactive: -0.0531% |
| CCCCCN1C(C(=O)c2ccccc2)=C(NC(=O)c2ccc(OC)c(OC)c2)c2ccccc2S1(=O)=O | inconclusive: 14.6 µM [falling, partial curve] |  |
| CC(=O)c1cccc(NC(=O)N2CCC(C(=O)c3ccc(F)cc3)CC2)c1 | inconclusive: 23.1 µM [falling, single point] |  |
| CCNC(=O)c1cccc(NC(=O)c2cc(C3CC3)nc3c2cnn3C(C)C)c1 | active: 18.4 µM |  |
| O=C(Nc1nc(-c2ccc([N+](=O)[O-])cc2)cs1)c1c(F)cccc1F | inconclusive: 11.6 µM [falling, partial curve, poor fit] |  |

Complete entries, looked up by structure.
`CCN(CC)S(=O)(=O)c1nnc(NC(=O)COc2ccccc2)s1` is listed as Potency: inconclusive: 29.1 µM [activator, single point]
`O=C(Nc1nc(-c2ccc([N+](=O)[O-])cc2)cs1)c1c(F)cccc1F` is listed as Potency: inconclusive: 11.6 µM [falling, partial curve, poor fit]
`COc1ccc(C2c3ccsc3CCN2C(C)=O)cc1` (stereo not drawn) is listed as Potency: inconclusive: 29.1 µM [activator, single point]
